Test results as given in PMC5356584.

Amino acid sequences for entries named in this document (tags omitted).
UniProt Q92481: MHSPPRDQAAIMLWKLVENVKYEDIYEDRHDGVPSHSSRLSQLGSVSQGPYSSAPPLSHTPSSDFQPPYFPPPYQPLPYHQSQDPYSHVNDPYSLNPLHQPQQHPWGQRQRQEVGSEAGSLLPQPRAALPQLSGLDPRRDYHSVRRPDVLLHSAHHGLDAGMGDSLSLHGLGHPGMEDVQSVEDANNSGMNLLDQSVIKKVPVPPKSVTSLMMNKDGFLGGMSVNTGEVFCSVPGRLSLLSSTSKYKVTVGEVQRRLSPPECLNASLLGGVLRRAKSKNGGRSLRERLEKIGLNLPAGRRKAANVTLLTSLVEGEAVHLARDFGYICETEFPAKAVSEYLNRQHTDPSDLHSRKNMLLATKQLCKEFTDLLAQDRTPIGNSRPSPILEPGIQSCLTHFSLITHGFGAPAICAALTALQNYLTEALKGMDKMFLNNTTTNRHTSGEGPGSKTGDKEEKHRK

Biological target: T1, PGC1α (Peroxisome proliferator-activated receptor γ, coactivator 1α) (human (endogenous in 5-8F and MGC803)) (UniProt Q9UBK2)
T1 sequence: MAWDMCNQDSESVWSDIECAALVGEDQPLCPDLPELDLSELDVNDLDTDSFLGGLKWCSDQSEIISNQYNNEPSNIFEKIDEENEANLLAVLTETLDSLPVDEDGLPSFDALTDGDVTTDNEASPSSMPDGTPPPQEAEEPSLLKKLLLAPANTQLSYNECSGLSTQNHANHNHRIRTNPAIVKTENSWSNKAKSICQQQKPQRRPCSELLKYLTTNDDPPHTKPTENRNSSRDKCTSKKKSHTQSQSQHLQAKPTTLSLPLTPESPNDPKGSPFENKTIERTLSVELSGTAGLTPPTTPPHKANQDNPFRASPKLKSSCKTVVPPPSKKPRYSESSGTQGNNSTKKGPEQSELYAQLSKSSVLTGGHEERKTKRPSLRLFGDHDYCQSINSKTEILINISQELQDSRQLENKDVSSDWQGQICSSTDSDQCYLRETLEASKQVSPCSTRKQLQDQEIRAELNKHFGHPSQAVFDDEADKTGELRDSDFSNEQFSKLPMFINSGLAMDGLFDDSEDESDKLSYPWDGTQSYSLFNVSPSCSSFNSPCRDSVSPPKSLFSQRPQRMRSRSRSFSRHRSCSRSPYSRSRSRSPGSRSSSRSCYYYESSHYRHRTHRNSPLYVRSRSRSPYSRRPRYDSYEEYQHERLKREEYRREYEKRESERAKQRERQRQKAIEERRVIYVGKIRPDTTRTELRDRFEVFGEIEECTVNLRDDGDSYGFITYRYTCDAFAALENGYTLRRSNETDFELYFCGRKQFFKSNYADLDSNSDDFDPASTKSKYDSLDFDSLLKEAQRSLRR
Assay: affinity purification with mass spectrometry; Co-IP pulldown with anti-PGC1α antibody on Protein G agarose, followed by LC/MS/MS; cell line not stated

AP2β (from UniProt Q92481 1-460)
binding: binds

B1: LSF (also known as TFCP2) (protein, UniProt Q12800 1-502)
chain: MAWALKLPLADEVIESGLVQDFDASLSGIGQELGAGAYSMSDVLALPIFKQEESSLPPDNENKILPFQYVLCAATSPAVKLHDETLTYLNQGQSYEIRMLDNRKLGELPEINGKLVKSIFRVVFHDRRLQYTEHQQLEGWRWNRPGDRILDIDIPMSVGIIDPRANPTQLNTVEFLWDPAKRTSVFIQVHCISTEFTMRKHGGEKGVPFRVQIDTFKENENGEYTEHLHSASCQIKVFKPKGADRKQKTDREKMEKRTPHEKEKYQPSYETTILTECSPWPEITYVNNSPSPGFNSSHSSFSLGEGNGSPNHQPEPPPPVTDNLLPTTTPQEAQQWLHRNRFSTFTRLFTNFSGADLLKLTRDDVIQICGPADGIRLFNALKGRMVRPRLTIYVCQESLQLREQQQQQQQQQQKHEDGDSNGTFFVYHAIYLEELTAVELTEKIAQLFSISPCQISQIYKQGPTGIHVLISDEMIQNFQEEACFILDTMKAETNDSYHIILK
binding: binds

These are yes or no findings as the source states them, for the method shown. In cells and extracts the contact can be indirect. Here binding means that the protein was enriched with, or labelled near, the bait; the list need not be complete.
